Experimental data published in patent US20040180409A1.
Results are given in words; binding and its absence hold for the method and conditions named. Some binding calls cover weakened binding; strength is not graded here. Tags and fused reporters may be left off the sequences shown.

Biological target: epitope-tagged (V5) full-length murine TLT-1 (TREM-like transcript-1) expressed in HEK293T cells (mouse) (UniProt Q8K558)
Assay: immunoprecipitation and Western blot of surface-biotinylated cells in nonreducing buffer

- binding: binds
B1: epitope-tagged (V5) full-length murine TLT-1 (TREM-like transcript-1) expressed in HEK293T cells (receptor, not shown: small tags and cut ends)
chain: QGSADSHPEVLQAPVGSSILVQCHYRLQDVRALKVWCQFLQEGCHPLVTSAVDRRAPGNGRIFLTDLGGGLLQVEMVTLQEEDTGEYGCVVEGAAGPQTLHRVSLLVLPPVPGPREGEEAEDEKETYRIGTGSLLEDPSLDPSASAGPHEFRRRENRCQKQCIPLIWGAVLLLALVVVAVVIFAVMARKKGNRLVVCGPSQSTGVPGMDPPSAAHRSSDSGLPSDIPHVRLDSPPSFDSIYTGSSLDPPSSEPPAPPSQPPLPPKVLMSSKSVTYATVVFPGGDKGKIASCEPVQDPPNSQTPPSK
